PubChem BioAssay AID493014 (National Center for Advancing Translational Sciences (NCATS), 2011)
The other results are listed elsewhere or left out. Further columns of the screen follow, without active or inactive calls. Compounds called inactive in the main read-out are mostly missing here. The note in brackets gives the kind of curve behind each potency; many fits are weak.

assay: qHTS Assay to Find Inhibitors of Chronic Active B-Cell Receptor Signaling; conditions: ABC-DLBCL IkBa-CBG/CBR reporter, luminescence ratio (green luciferase fused to IkBa over red control in TMD8 lymphoma cells), 4 h; measured here: CBR red luminescence, cell number
Procedure, shortened: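 TMD8 human ABC-DLBCL cells with doxycycline-inducible IκBα–green luciferase fusion and unfused red luciferase, in 0.5% FBS medium; compounds up to 46 uM, 4 h at 37C. Green/red luminescence ratio, filter-overlap corrected, fitted to concentration-response curves.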

With `CC(C)(C)OC(=O)N1CCC[C@H]1c1nnc(SCc2c(F)cccc2Cl)o1` as the molecule, how does the AC50 read?
The AC50 was 3.16 µM [rising, partial curve, poor fit].

With `COc1ccccc1NS(=O)(=O)c1cccc(N=C2N=C(N)c3ccccc32)c1` as the molecule, how does the AC50 read?
The AC50 was 18.4 µM [falling, partial curve, poor fit].

With `COc1cc(/C=C2\SC(=S)N(NC(=O)c3cccnc3)C2=O)ccc1O` as the molecule, how does the AC50 read?
Its AC50 is 35.5 µM [rising, single point].

Which AC50 does the source give for `Nc1ccc(-c2nnc(-c3ccccc3)o2)cc1` here?
The AC50 was 11.2 µM [falling, partial curve].

Which AC50 does the source give for `COc1ccccc1C1=NN(C(=S)Nc2ccccc2)C(c2ccco2)C1` (stereo not drawn) here?
Its AC50 is 3.98 µM [falling, full curve, poor fit].

For `O=C(Cc1cccs1)N/N=C/c1ccc(OCc2ccccc2)cc1`, which AC50 is on record?
Its AC50 is 32.6 µM [rising, partial curve, poor fit].

For `Cc1c(C(=O)NC2CCCc3ccccc32)oc2ccccc12` (stereo not drawn), which AC50 is on record?
The AC50 was 4.61 µM [falling, single point].

With `Cc1[nH]c2ccc3ncccc3c2c1C` as the molecule, how does the AC50 read?
Its AC50 is 3.26 µM [rising, partial curve].

Which AC50 does the source give for `Nc1c(C(=O)Nc2ccc3c(c2)OCCO3)nnn1CCc1ccccc1` here?
The AC50 was 29.1 µM [falling, single point].

With `O=C(Nc1ccccc1)Nc1snnc1C(=O)Nc1cccc(O)c1` as the molecule, how does the AC50 read?
Its AC50 is 0.562 µM [rising, full curve].

With `Cc1[nH]c2ccccc2c1C(c1ccncc1)N1CCC(C)CC1` (stereo not drawn) as the molecule, how does the AC50 read?
Its AC50 is 25.1 µM [falling, partial curve, poor fit].

Which AC50 does the source give for `Cn1c(=O)oc2cc(S(=O)(=O)N3CCN(c4ccccc4F)CC3)ccc21` here?
The AC50 was 35.5 µM [falling, partial curve, poor fit].

Which AC50 does the source give for `COc1ccccc1N1C(=O)C=C(Sc2nc(C)cc(C)n2)C1=O` here?
The AC50 was 15.8 µM [falling, partial curve, poor fit].

With `Cc1csc(NC(=O)CSc2nnc(-c3ccccn3)n2-c2ccc(C)c(C)c2)n1` as the molecule, how does the AC50 read?
The AC50 was 20 µM [falling, single point].

For `Nc1nc(-c2ccccn2)nc(N)c1Cc1c(F)cccc1Cl`, which AC50 is on record?
The AC50 was 2 µM [falling, partial curve, poor fit].

For `O=C(N/C(=C/c1ccccc1)C(=O)N1CCCCC1)c1ccc(Br)o1`, which AC50 is on record?
The AC50 was 6.31 µM [falling, partial curve, poor fit].

Which AC50 does the source give for `O=C(Cc1ccc(Cl)c(Cl)c1)Nc1cccc(S(=O)(=O)N2CCOCC2)c1` here?
The AC50 was 35.5 µM [falling, single point].

With `Cc1c(C)c2cc(Cl)c(O)c(CN3CCCC(C)C3)c2oc1=O` (stereo not drawn) as the molecule, how does the AC50 read?
The AC50 was 20.6 µM [rising, single point].
